Measurements from patent publication US20220144937A1 (JIANGSU HENGRUI MEDICINE, published 2022).
These are yes or no findings as the source states them, for the method shown. Some results given as binding are weak or reduced against the parent protein; the word gives no strength.

Molecular target: T1, human IL-5 with his-tag (rhIL-5-his) (human, UniProt P05113 20-134)
T1 sequence: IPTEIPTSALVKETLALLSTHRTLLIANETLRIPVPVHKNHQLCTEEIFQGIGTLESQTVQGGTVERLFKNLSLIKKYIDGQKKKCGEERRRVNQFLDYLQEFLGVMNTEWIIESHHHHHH
Assay: Biacore
Protocol: The affinity of the murine IL-5 antibody to be tested with human IL-5 was measured by Biacore T200 (GE) instrument.
The protein A biosensor chip was used to affinity capture of the molecules to be tested, and then the antigen (recombinant human and cyno IL-5 prepared in Example 1) flowed through the surface of the chip, and the reaction signal was detected in real time with the Biacore T200 instrument to obtain the binding and dissociation curves. After the dissociation of each experimental cycle was completed, the biosensor chip was washed and regenerated with glycine-hydrochloric acid regeneration solution (pH 1.5). BIA evaluation version 4.1 GE software was used to fit the data against (1:1) Langmuir model, and the affinity value was obtained and shown in Table 13.

binding: binds
B1: h1779-014 (antibody, human IgG1, kappa, V domains shown)
VH: EVQLVQSGAEVKKPGASVKVSCKASGYTFTDYIIHWVKQAPGQGLEWIGYFNPNSGGSNYNENFKRKATMTADKSISTAYLEFSRLRSEDTAVYYCARRIAWDHWYFDFWGQGTMVTVSS
VL: DIQMTQSPSSLSASVGDRVTITCLASEGISNDVAWYQQKPGKSPKLLVYAASRLQDGVPSRFSGSGSGTDYTFTISSLQPEDIATYYCQQGYKTPLTFGQGTKLEIKR
notes: See recheck
